Results published in doi:10.1101/2020.05.13.094045.
Results are given in words; binding and its absence hold for the method and conditions named. In cells and extracts the contact can be indirect.

Molecular target: AP_SAP11-like_PM19^Δ40-56-GFP ('Candidatus Phytoplasma mali' strain PM19)
Assay: FRET or BRET

B1: AtTCP4-RFP (protein, UniProt Q8LPR5 1-420)
chain: MSDDQFHHPPPPSSMRHRSTSDAADGGCGEIVEVQGGHIVRSTGRKDRHSKVCTAKGPRDRRVRLSAHTAIQFYDVQDRLGFDRPSKAVDWLIKKAKTSIDELAELPPWNPADAIRLAAANAKPRRTTAKTQISPSPPPPQQQQQQQQLQFGVGFNGGGAEHPSNNESSFLPPSMDSDSIADTIKSFFPVIGSSTEAPSNHNLMHNYHHQHPPDLLSRTNSQNQDLRLSLQSFPDGPPSLLHHQHHHHTSASASEPTLFYGQSNPLGFDTSSWEQQSSEFGRIQRLVAWNSGGGGGATDTGNGGGFLFAPPTPSTTSFQPVLGQSQQLYSQRGPLQSSYSPMIRAWFDPHHHHQSISTDDLNHHHHLPPPVHQSAIPGIGFASGEFSSGFRIPARFQGQEEEQHDGLTHKPSSASSISRH
With B1 the binding was “no binding”.
